Measurements from “University of Dundee, Small-Polar-MMV Screening Library” (2021), ChEMBL document CHEMBL3988442.

Protein sequences, listed by entry. Tags and fused reporters are not part of them.
UniProt E9BF75, entry or part of it: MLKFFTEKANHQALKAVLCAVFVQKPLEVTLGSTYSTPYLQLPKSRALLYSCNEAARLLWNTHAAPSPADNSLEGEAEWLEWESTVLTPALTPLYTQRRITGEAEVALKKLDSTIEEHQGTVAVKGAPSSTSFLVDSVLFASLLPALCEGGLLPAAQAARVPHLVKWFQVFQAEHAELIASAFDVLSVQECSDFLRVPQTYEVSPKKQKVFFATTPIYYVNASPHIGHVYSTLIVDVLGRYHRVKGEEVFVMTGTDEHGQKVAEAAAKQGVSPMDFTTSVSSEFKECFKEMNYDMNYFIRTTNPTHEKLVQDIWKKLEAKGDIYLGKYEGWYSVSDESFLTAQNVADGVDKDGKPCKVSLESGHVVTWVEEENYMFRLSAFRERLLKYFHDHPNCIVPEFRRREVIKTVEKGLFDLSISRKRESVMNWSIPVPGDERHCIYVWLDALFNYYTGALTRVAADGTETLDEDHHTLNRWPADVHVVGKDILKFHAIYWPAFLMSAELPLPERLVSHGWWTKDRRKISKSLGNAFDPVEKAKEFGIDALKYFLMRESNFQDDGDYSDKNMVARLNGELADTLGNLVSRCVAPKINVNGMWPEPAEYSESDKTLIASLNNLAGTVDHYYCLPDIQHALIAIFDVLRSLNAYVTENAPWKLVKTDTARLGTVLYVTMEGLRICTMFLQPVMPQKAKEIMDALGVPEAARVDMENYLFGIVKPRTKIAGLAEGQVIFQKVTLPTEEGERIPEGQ

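Primary screen of methionyl-tRNA synthetase; the read-out is not stated. Target: Methionyl-tRNA synthetase (putative), Leishmania donovani (UniProt E9BF75). The test concentration is not given. The values are filed as inhibition. About 68,000 compounds were tested under these conditions; 0.035% (about 24) showed 50% or more at least once.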

Results are percentages, as filed.
How 0% and 100% were set is not recorded. Most values in the screen are low, and negative values occur.
The compounds are a random part of those screened.

Result for Nc1cc2c(nn1)CCN(C(=O)CCc1ccc3c(c1)OCO3)C2 was 10.89%. Cc1occc1C(=O)N1CCC[C@]2(C[C@@H](OCc3ccccn3)CO2)C1 read 10.95%. For CCCOc1ccc2c(c1)OCC(CNC1CCc3ncnn3C1)=C2 (stereo not shown) the result was 14.09%. Cc1cc(C(=O)N(C)Cc2ccoc2)c(NC(=O)C(C)(C)C)s1 gave 9.524%. CNC(=O)[C@@]12CCC3(CCN(C(C)=O)CC3)[C@@H]1CN(S(C)(=O)=O)C2 read 13.01%. Result for CCCc1nnc([C@H]2CCN(Cc3ncc[nH]3)C2)o1 was 1.648%.

For CCOC(=O)c1coc(N2CCN(C(=O)c3cccc(OC)c3)CC2)n1 the result was 17.96%. CN(C)CCNC(=O)c1ccc(OC2CCN(C(=O)CO)CC2)c(Cl)c1 read 9.253%. For CN(C)S(=O)(=O)N1CC[C@]2(C[C@@H](Oc3cccnc3)CO2)C1 the result was 7.843%. Result for O=C(O)c1cc(S(=O)(=O)Nc2ccccc2)cc2c1OCCO2 was 19.2%. With CN(C)C(=O)CN1CCN(c2cc(N3CCCC3CO)ncn2)CC1 (stereo not shown) the screen gave -3.073%. For CNS(=O)(=O)CC(=O)N(Cc1c(F)cccc1F)C1CCCC1 the result was 16.32%.

CC(C)CS(=O)(=O)NC(=O)c1ccc2c(c1)ncn2C gave 4.482%. Result for Cc1nc(CN2CCc3cncnc3C2)oc1C was 6.404%. Result for Cc1cc(CN(C)C(=O)c2ccc(OCC(F)(F)F)nc2)no1 was 13.01%. Cc1cc(C)nc(NC2CCCN(CCCc3ccccc3)C2)n1 (stereo not shown) gave 11.17%. O=c1c(-c2ccnc(NC3CCOCC3)n2)cnc2sc(Cl)cn12 gave 4.196%. Result for COCC1CC2(CCN(Cc3cnn(C)c3)CC2)CN1c1ncccn1 (stereo not shown) was 10.24%.

Result for Cc1cc(C)nc(N2CC=C[C@@H]2C(=O)NCc2ccc3c(c2)OCO3)n1 was 5.774%. For CCc1nnc(CN(C)C(=O)C2CC(=O)N(C3CC3)C2)o1 (stereo not shown) the result was 1.535%. COCCN(Cc1sccc1C)c1nc(C)nc2sccc12 read 9.966%. Cn1nc(CN2CCCCC2)c2c1CN(C(=O)c1ccoc1)C2 read 6.875%. With Cn1c(=O)oc2ccc(Nc3ncc(C#N)cc3Cl)cc21 the screen gave 21.31%. O=C(NCc1ccc(Cl)cc1Cl)NCC1(O)CCSC1 (stereo not shown) read 13.64%.

With c1csc(N2[C@H](Cn3cncn3)C[C@@H]3CNCC[C@@H]32)n1 the screen gave 1.449%. With CCc1csc(C2CCCN(C(=O)c3ccc4c(c3)OCO4)C2)n1 (stereo not shown) the screen gave 8.355%. Result for CSCc1ccc(C(=O)NCCCNc2ccc(C(F)(F)F)cn2)cc1 was 16.32%. Result for Cc1nc(NCC23CCCN2CCC3)cc(C2CCCNC2)n1 (stereo not shown) was 11.19%. CCCS(=O)(=O)N1CCc2nc(N3CCOCC3)nc(N(C)C)c2C1 read 4.71%. With COc1ccc(Oc2cncc(C3CCCN3C(C)=O)n2)cc1 (stereo not shown) the screen gave 3.767%.

Result for CCN(C(=O)CN1CCCC1c1cc(C)no1)c1ccccc1C (stereo not shown) was 13.06%. Result for CN(C)C(=O)CCNC(=O)NCc1ccc(Br)cc1Cl was 3.472%. With COCCNC(=O)CN(C)CCn1nc2ccccn2c1=O the screen gave 12.27%. CCOC(=O)c1n[nH]cc1-c1cncn1CCn1nc(C)c(C)c1C gave 16.13%. For CCC(O)(CNCc1cc[nH]n1)c1ccc(Br)cc1 (stereo not shown) the result was 1.781%. CCN(CC)CC(=O)N(C)C(c1cccc(F)c1)c1ccccn1 (stereo not shown) read 10.23%.

CN(C)[C@@H]1CN(C(=O)COc2cccc(F)c2)C[C@H]1O gave 5.882%. With Cn1cc(-c2nnn3c2COC(CNCC2CCOCC2)C3)cn1 (stereo not shown) the screen gave 4.375%. Cc1noc(C)c1CCC(=O)N1CCN(CCn2cccn2)CC1 gave 10.34%. Result for COCc1nc2n(n1)CCCC2Nc1nc(C)ns1 (stereo not shown) was 7.625%. CCc1cnc(C)nc1NC(C)C(=O)Nc1cc(F)ccc1C (stereo not shown) gave 8.935%. With CC(=O)N(Cc1noc(C)n1)C1CCN(CC(=O)N(C)C2CC2)C1 (stereo not shown) the screen gave 7.396%.

Cc1noc(C)c1CN1CCCC2(CCN(C(=O)N3CCOCC3)C2)C1 (stereo not shown) gave 8.654%. With CCC(=O)N1CCCC1c1ccsc1 (stereo not shown) the screen gave 11.05%. For CN(C)c1cnn(Cc2nc3ccccc3n2C)c(=O)c1 the result was 14.36%. For COCCN1CCN(Cc2cccc(C(=O)N(C)C)c2)CC1 the result was 30.92%. With Cc1nccn1CCC1CCN(c2ccncn2)CC1 the screen gave 10.05%. COc1ccc(C2CC(=O)c3c(O)cc(O)cc3O2)cc1O (stereo not shown) read 5.495%.

O=C(CC1CN(Cc2ccccc2)CCO1)Nc1ccsc1 (stereo not shown) gave 10.08%. Result for CC(C)(N)C(=O)N1CCC(c2nccnc2Oc2cccc(F)c2)CC1 was 7.294%. O=C(CCc1cn[nH]c1)N1C[C@H](CO)C[C@H](CN2CCOCC2)C1 read 4.267%. For COCC(=O)N1CCN(Cc2cccnc2)c2ncccc2C1 the result was 1.918%.

3 of the entries, repeated:

* COCC1CC2(CCN(Cc3cnn(C)c3)CC2)CN1c1ncccn1 (stereo not shown) | 10.24%
* O=C(NCc1ccc(Cl)cc1Cl)NCC1(O)CCSC1 (stereo not shown) | 13.64%
* CCCc1nnc([C@H]2CCN(Cc3ncc[nH]3)C2)o1 | 1.648%